Source: publication PMC9551036, “A selective and orally bioavailable VHL-recruiting PROTAC achieves SMARCA2 degradation in vivo” (Nature Communications, 2022)

Test: Solubility testing

SMILES	Solubility pH 4.5	Solubility pH 6.8
Cc1ncsc1-c1ccc(CNC(=O)[C@@H]2C[C@@H](O)CN2C(=O)[C@@H](NC(=O)C2(F)CC2)C(C)(C)C)c(OCCOCCOCCOCCN2CCC(c3ccc4c(c3)n(C3CCCC3)c3nc(=O)c5c(Br)cccc5n43)CC2)c1 [compound 22]	230.000 ug/mL, 220.000 ug/mL, 225 μg/mL	180.000 ug/mL, 140.000 ug/mL, 160 μg/mL
Cc1ncsc1-c1ccc(CNC(=O)[C@@H]2C[C@@H](O)CN2C(=O)[C@@H](NC(=O)C2(F)CC2)C(C)(C)C)c(OCCOCCOCCN2CCC(c3ccc4c(c3)n(C3CCCC3)c3nc(=O)c5c(Br)cccc5n43)CC2)c1 [compound 21]	–	86.000 ug/mL, 85.000 ug/mL, 70.000 ug/mL, 80 μg/mL
Cc1ncsc1-c1ccc([C@H](COC(C)(C)CN2CCC(c3ccc4c(c3)n(C3CCCC3)c3nc(=O)c5c(Br)cccc5n43)CC2)NC(=O)[C@@H]2C[C@@H](O)CN2C(=O)[C@@H](NC(=O)C2(F)CC2)C(C)(C)C)cc1 [compound 28]	2.000 ug/mL, < 1.000 ug/mL, 3.000 ug/mL	–

Not every entry of the source has a single result; some have several. This is not the full list of results. The source may hold further records. The records of an entry differ for a reason that is not stated; they may come from other doses, times, organisms or constructs than stated.
